Data as given in PubChem BioAssay AID743454 (Peter MacCallum Cancer Centre, 2014)

Assay: 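Knock-downs lowering viability or raising caspase 3/7 activity in vorinostat-treated resistant cells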 (primary screen)
Cells: human HCT116-VR colon cancer cells, selected for vorinostat resistance
Knock-down reagent: siRNA pool against human genes, 40 nM siRNA pool
Time to read-out: vorinostat for 24 h, read-out about 72 h after transfection
Conditions: vorinostat at 2.5 µM final
Detection: 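Cell viability by CellTiter-Fluor and caspase 3/7 activity by luminescence, each scaled to mock wells per plate, duplicates averaged, then robust z-scored over all plates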
Direction: viability robust z-score: higher = more viable cells than screen typical; caspase robust z-score: higher = more caspase 3/7 activity than screen typical
Active means: 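a knock-down is a hit when classed RV1 or RV2 for lowered viability, or CA1 or CA2 for caspase activation; those lethal without drug were dropped; hits were retested singly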
In all, the deposit lists about 18,000 reagents; below is a part drawn at random. 450 of all reagents (2.5%) were called active. 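Single biological run; no consistent viability z cut-off exists, so the class columns, not z-scores, define the calls.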 No sequences are given here.

| target | viability hit class | caspase hit class | viability robust z-score | caspase robust z-score | call |
| --- | --- | --- | --- | --- | --- |
| SAMD11 | no change | no change | 0.34 | -1.08 | inactive |
| C11orf68 | no change | no change | -1.58 | 2.83 | inactive |
| KRTAP10-12 | no change | no change | -0.48 | 2.66 | inactive |
| RUNX1 | no change | no change | -0.48 | 0.88 | inactive |
| PPP1R14C | no change | no change | -1.23 | 0.04 | inactive |
| HAUS4 | no change | no change | -1.92 | 1.67 | inactive |
| CD7 | no change | no change | 0.22 | -0.06 | inactive |
| DLG5 | no change | no change | -0.88 | 4.15 | inactive |
| TMEM244 | no change | no change | 0.95 | -0.74 | inactive |
| MRPL24 | no change | no change | -0.46 | -0.5 | inactive |
| THSD7B | no change | CA2 (caspase activation) | -2.2 | 9.14 | active |
| HEATR5B | no change | no change | 0.15 | -0.35 | inactive |
| SYTL4 | no change | no change | 0.84 | 3.71 | inactive |
| OR5AU1 | no change | no change | 1.32 | -0.37 | inactive |
| LRRC56 | no change | no change | -0.06 | -0.88 | inactive |
| DMD | no change | no change | 0.45 | 0.12 | inactive |
| TBXAS1 | no change | no change | 1 | 0.12 | inactive |
| CAMK2N1 | no change | no change | 0.27 | 3.48 | inactive |
| HMGN1 | no change | no change | -2.66 | 2.96 | inactive |
| EPN1 | no change | no change | 0.04 | 0.36 | inactive |
| NOL9 | no change | no change | -2.33 | -0.22 | inactive |
| ZCCHC8 | no change | no change | 1 | -0.78 | inactive |
| COX14 | no change | no change | -0.35 | -0.79 | inactive |
| CD47 | no change | no change | 0.74 | 1.5 | inactive |
| ARHGAP1 | no change | no change | -0.09 | -0.25 | inactive |
| LINC00482 | no change | no change | -0.36 | -0.68 | inactive |
| AGTR1 | no change | no change | 0.05 | -1.07 | inactive |
| ZNF496 | no change | no change | -0.54 | -0.39 | inactive |
| GALNS | no change | no change | 0.84 | 1.21 | inactive |
| TELO2 | no change | no change | -0.16 | 0.18 | inactive |
| BMP15 | no change | no change | -1.42 | -0.79 | inactive |
| NTF4 | no change | no change | 0.16 | -0.12 | inactive |
| SFT2D2 | no change | no change | 0.84 | 0.96 | inactive |
| CA11 | no change | no change | -0.71 | 3.53 | inactive |
| CAPN3 | no change | no change | -0.78 | -0.66 | inactive |
| UQCRQ | no change | no change | -2.7 | 5.19 | inactive |
| MSN | no change | no change | 0.64 | -0.84 | inactive |
| LELP1 | no change | no change | -0.01 | -0.6 | inactive |
| HNRNPA0 | no change | no change | 0.32 | -0.38 | inactive |
| TEX13A | no change | no change | -0.53 | -0.72 | inactive |
| USP15 | no change | no change | -0.88 | -0.7 | inactive |
| S100A7A | no change | no change | -1.33 | 0.55 | inactive |
| NFXL1 | no change | no change | -0.36 | 0.79 | inactive |
| BMF | no change | no change | 0.25 | -0.15 | inactive |
| CPOX | no change | no change | 0.84 | -0.09 | inactive |
| CSH2 | no change | no change | 1.18 | 0.84 | inactive |
| RPS2 | no change | no change | -3.84 | -1.21 | inactive |
| RNASE9 | no change | no change | 0.26 | -0.16 | inactive |
| CTRC | no change | no change | -1.34 | 0.06 | inactive |
| ADAM30 | no change | no change | 1.29 | -0.6 | inactive |
| PM20D1 | no change | no change | -0.02 | -0.42 | inactive |
| C2CD2L | no change | no change | 1.07 | -0.6 | inactive |
| WDR41 | no change | no change | -0.08 | -0.56 | inactive |
| LAMTOR3 | no change | no change | -0.34 | 0.79 | inactive |
| MINDY2 | no change | no change | -0.64 | -0.16 | inactive |
| C19orf53 | no change | no change | 0.62 | -0.5 | inactive |
| ATPAF2 | no change | no change | -2.21 | -1.08 | inactive |

Part of the list above, showing only “viability hit class”.
NOL9	no change
ZCCHC8	no change
COX14	no change
CD47	no change
ARHGAP1	no change
LINC00482	no change
AGTR1	no change
ZNF496	no change
